Source: the supplement of paper PMC12823440, “Inhibitors supercharge kinase turnover through native proteolytic circuits” (Nature, 2025)
This is one part of the list. The calls rarely recur for the same compound in another form.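 Kinases were expressed as nanoluciferase fusions in K562 cells and luminescence was read every 4 h between 2 and 18 h as percent of control, DMSO set to 100% and a positive control to 0%. A time point counts as decreased when the signal drops significantly (2 sigma). The hit call is the authors' own, does not follow from the count of time points alone, and its rule is not shown.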

Chains of the proteins cited; added tags and fusions are not shown. Lines headed by an entry give the natural chain unless they say otherwise; changes in a name come on top.
UniProt P48729: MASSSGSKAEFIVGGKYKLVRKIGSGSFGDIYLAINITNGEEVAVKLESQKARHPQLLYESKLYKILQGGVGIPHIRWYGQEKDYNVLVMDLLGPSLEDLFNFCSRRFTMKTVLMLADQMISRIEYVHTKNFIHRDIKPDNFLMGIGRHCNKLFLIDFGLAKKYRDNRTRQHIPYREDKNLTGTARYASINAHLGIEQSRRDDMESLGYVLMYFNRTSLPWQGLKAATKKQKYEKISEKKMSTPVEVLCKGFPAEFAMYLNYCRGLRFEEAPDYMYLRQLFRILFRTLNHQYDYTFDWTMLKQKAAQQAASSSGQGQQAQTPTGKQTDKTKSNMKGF
UniProt Q9UQM7, whole entry: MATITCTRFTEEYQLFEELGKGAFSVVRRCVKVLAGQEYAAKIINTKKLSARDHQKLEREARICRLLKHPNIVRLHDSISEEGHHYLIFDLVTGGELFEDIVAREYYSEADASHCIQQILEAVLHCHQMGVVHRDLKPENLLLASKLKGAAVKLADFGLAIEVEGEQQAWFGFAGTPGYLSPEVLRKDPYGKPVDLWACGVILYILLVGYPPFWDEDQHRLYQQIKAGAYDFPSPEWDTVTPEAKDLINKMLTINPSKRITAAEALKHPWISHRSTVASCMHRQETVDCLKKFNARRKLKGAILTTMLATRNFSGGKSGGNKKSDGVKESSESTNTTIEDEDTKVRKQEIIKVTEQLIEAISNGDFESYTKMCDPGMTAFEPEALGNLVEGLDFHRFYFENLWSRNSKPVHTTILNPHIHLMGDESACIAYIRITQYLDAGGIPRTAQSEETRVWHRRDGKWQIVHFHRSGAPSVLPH
UniProt Q9UQB9: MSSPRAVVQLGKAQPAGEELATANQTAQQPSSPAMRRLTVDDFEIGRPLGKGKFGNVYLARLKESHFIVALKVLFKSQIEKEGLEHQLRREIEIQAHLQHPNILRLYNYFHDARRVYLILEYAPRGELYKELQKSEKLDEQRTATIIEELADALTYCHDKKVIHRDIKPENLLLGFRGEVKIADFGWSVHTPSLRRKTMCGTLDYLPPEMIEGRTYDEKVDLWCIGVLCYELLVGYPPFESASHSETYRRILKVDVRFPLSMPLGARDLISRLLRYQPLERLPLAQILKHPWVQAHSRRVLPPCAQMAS
UniProt O96017, whole entry: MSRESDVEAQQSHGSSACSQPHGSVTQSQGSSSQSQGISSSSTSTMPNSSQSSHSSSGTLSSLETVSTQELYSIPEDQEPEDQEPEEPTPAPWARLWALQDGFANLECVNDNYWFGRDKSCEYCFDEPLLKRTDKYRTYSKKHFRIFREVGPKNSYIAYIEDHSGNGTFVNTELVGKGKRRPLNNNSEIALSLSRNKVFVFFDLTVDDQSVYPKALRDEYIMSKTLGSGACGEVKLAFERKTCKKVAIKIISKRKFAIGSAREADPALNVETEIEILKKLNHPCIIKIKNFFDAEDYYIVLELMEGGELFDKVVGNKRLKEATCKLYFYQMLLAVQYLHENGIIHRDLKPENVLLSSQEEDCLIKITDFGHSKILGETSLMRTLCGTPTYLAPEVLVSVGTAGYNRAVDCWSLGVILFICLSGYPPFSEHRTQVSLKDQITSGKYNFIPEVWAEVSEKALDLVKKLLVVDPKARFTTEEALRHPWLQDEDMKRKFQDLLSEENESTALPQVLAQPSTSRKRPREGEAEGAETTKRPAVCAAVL
UniProt Q9Y616: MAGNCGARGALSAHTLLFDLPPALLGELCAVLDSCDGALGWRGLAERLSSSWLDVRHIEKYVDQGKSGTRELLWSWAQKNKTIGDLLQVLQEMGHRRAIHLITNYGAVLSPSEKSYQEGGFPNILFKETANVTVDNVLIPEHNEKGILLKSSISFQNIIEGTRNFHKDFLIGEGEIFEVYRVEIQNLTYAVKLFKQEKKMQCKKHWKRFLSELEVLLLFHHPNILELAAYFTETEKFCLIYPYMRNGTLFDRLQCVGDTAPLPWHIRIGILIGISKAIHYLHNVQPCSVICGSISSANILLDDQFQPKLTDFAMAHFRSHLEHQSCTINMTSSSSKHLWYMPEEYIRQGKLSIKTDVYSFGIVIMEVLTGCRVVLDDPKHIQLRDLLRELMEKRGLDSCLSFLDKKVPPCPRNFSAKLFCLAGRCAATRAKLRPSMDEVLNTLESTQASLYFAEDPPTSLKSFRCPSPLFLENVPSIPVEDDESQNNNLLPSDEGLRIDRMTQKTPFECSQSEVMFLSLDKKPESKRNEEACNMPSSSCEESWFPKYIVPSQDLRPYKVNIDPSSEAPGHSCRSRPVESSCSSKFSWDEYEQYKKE
UniProt Q8IWU2: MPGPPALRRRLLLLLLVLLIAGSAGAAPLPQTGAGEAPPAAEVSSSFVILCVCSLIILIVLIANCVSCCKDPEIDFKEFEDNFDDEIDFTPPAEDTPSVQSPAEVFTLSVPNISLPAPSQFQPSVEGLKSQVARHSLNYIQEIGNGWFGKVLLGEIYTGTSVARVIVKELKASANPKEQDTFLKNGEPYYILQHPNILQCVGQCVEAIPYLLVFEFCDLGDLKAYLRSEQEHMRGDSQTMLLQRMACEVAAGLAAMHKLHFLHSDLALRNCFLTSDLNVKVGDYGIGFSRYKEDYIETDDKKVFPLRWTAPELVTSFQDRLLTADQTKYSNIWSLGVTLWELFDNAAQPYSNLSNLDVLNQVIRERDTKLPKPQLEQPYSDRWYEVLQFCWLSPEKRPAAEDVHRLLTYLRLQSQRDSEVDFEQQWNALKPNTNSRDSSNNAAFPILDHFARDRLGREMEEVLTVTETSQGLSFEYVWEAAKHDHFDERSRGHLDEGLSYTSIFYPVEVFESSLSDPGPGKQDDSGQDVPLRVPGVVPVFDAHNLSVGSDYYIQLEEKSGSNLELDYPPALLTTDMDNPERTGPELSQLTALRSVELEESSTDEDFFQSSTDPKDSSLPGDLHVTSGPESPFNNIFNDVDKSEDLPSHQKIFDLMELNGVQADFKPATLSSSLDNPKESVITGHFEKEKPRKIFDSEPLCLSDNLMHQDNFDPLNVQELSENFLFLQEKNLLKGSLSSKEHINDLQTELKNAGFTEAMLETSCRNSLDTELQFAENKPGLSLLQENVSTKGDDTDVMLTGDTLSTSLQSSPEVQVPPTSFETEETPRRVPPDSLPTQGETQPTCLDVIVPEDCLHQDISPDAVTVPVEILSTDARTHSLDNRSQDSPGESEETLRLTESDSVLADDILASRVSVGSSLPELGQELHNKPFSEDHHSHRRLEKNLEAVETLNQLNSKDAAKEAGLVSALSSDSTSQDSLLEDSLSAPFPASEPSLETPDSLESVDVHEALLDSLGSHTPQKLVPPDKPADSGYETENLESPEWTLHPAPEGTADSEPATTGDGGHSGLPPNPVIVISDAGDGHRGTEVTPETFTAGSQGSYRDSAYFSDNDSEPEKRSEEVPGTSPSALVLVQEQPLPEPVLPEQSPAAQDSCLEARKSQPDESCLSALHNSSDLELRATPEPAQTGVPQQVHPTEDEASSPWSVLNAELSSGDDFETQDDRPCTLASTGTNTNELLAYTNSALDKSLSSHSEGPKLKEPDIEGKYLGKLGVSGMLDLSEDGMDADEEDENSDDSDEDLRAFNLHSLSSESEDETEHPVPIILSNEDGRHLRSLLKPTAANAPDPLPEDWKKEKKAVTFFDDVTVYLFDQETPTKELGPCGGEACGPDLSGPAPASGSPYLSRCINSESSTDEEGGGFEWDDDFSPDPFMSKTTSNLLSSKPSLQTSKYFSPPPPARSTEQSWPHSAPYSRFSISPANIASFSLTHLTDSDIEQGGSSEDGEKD
UniProt Q9Y6E0: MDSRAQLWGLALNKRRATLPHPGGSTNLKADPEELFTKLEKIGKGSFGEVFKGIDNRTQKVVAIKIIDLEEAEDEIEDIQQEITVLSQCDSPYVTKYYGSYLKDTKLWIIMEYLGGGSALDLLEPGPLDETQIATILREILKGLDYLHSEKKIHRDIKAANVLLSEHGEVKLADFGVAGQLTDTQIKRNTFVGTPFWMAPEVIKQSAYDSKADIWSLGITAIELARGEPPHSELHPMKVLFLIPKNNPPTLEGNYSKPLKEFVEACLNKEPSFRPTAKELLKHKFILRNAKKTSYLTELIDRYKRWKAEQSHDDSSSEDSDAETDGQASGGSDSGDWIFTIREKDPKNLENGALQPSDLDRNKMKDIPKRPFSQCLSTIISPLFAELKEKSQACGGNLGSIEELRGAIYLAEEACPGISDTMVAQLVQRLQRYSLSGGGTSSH
UniProt P28482, whole entry: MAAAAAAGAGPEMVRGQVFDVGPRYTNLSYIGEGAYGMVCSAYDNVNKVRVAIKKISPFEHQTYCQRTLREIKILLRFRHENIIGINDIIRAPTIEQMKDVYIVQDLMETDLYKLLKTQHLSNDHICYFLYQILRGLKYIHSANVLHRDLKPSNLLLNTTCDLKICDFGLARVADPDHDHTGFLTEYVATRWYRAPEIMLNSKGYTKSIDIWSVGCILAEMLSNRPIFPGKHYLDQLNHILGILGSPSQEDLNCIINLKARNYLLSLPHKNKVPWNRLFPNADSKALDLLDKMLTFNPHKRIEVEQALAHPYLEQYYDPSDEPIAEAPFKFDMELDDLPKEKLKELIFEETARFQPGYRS
UniProt P10398: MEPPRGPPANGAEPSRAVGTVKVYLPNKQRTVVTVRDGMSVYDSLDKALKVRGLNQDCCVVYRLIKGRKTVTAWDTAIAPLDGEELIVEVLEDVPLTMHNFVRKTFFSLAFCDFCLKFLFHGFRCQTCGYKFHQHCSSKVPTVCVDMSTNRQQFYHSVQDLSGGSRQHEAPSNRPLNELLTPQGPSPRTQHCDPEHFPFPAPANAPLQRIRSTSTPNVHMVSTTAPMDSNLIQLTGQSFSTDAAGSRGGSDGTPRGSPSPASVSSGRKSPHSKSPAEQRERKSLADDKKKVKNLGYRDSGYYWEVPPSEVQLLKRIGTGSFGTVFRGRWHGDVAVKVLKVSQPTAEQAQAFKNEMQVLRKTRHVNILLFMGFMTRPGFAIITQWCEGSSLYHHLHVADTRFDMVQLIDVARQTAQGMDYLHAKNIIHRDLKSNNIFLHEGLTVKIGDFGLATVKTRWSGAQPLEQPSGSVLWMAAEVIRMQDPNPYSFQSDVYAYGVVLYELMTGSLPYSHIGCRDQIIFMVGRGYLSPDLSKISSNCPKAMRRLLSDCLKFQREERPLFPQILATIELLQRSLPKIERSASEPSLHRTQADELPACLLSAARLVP
UniProt Q9Y463, whole entry, looked up: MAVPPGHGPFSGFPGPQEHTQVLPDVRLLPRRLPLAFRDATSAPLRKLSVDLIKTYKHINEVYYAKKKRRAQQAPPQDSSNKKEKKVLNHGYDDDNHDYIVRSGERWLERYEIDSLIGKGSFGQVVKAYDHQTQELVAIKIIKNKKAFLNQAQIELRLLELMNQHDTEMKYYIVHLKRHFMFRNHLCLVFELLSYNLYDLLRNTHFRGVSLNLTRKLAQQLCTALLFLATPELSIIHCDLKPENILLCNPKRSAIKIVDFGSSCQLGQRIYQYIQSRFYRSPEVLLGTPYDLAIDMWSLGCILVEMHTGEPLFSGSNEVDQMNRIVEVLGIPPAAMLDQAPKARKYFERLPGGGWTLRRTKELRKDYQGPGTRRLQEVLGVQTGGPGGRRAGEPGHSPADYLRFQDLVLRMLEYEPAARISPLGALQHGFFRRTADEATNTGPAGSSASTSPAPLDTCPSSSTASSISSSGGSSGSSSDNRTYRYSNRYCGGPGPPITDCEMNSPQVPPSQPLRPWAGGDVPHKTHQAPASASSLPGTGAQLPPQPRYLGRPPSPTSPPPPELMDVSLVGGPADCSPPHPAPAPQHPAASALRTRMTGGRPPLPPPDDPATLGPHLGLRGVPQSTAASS

What was measured:
Experiment in all cases: number of time points (of 5) at which kinase-Nluc abundance scored as decreased, DMSO-normalised (count); higher = more persistent destabilization
Lck inhibitor 2 = compound: Cc1ccc(O)cc1Nc1ccnc(Nc2cccc(C(N)=O)c2)n1 [Lck inhibitor 2]; settings: 10 µM; K562; 2-18 h
Vadimezan = compound: Cc1ccc2c(=O)c3cccc(CC(=O)O)c3oc2c1C [Vadimezan]; settings: 10 µM; K562; 2-18 h
Nilotinib = compound: Cc1cn(-c2cc(NC(=O)c3ccc(C)c(Nc4nccc(-c5cccnc5)n4)c3)cc(C(F)(F)F)c2)cn1 [Nilotinib]; settings: 2.5 µM; K562; 2-18 h
[1] = compound: Cc1cnc(Nc2ccc(OCCN3CCCC3)cc2)nc1Nc1cccc(S(=O)(=O)NC(C)(C)C)c1 [Fedratinib (hydrochloride hydrate)]; settings: 2.5 µM; K562; 2-18 h
Fedratinib = compound: Cc1cnc(Nc2ccc(OCCN3CCCC3)cc2)nc1Nc1cccc(S(=O)(=O)NC(C)(C)C)c1 [Fedratinib]; settings: 2.5 µM; K562; 2-18 h
Dasatinib = compound: Cc1nc(Nc2ncc(C(=O)Nc3c(C)cccc3Cl)s2)cc(N2CCN(CCO)CC2)n1 [Dasatinib]; settings: 2.5 µM; K562; 2-18 h
[2] = compound: Cn1cc(/C=C2\C(=O)Nc3cccnc32)c2ccccc21; settings: 10 µM; K562; 2-18 h
[3] = compound: Fc1ccc(-c2nc(-c3ccc4ccccc4c3F)[nH]c2-c2ccncc2)cc1; settings: 10 µM; K562; 2-18 h
[4] = compound: Cc1ccccc1-n1c(Cn2nc(-c3cccc(O)c3)c3c(N)ncnc32)nc2cccc(C)c2c1=O; settings: 10 µM; K562; 2-18 h
[5] = compound: Cc1nc2c(-c3cnc(N)nc3)nc(N3CCOCC3)nc2n1C(C)C; settings: 2.5 µM; K562; 2-18 h

Target | number of time points (Lck inhibitor 2) | number of time points (Vadimezan) | number of time points (Nilotinib) | number of time points [1] | number of time points (Fedratinib) | number of time points (Dasatinib) | number of time points [2] | number of time points [3] | number of time points [4] | number of time points [5]
AURKB (UniProt Q96GD4) | 0 | 0 | 1 | 0 | 0 | 1 | 0 | – | – | –
PRKCA (UniProt P17252) | 0 | 0 | 0 | 0 | 0 | 0 | 0 | 0 | – | –
HER2 (UniProt P04626) | 0 | 0 | 2 | 0 | 0 | 1 | 0 | 5 | – | –
RET (UniProt P07949) | 0 | 0 | 2 | 0 | 0 | 2 | – | – | – | –
ERN1 (UniProt O75460) | 0 | 0 | 1 | 0 | 0 | 1 | 0 | 0 | – | –
INSRR (UniProt P14616) | 1 | 0 | 3 | 0 | 0 | 2 | 0 | 4 | – | –
PDGFRB (UniProt P09619) | 0 | 0 | 1 | 0 | 0 | 1 | 0 | 0 | – | –
ERBB4_R711C (clone: ERBB4_mut) (UniProt Q15303) | 0 | 0 | 2 | 0 | 0 | 3 | 0 | 4 | – | –
YES1 (UniProt P07947) | 0 | 0 | 1 | 0 | 0 | 3 | 0 | 0 | – | –
CDK3 (UniProt Q00526) | 0 | 0 | 0 | 0 | 0 | 0 | 0 | 0 | – | –
CAMK2G (UniProt Q13555) | 0 | 0 | 1 | 0 | 0 | 2 | 0 | 0 | – | –
CSK (UniProt P41240) | 0 | 0 | 1 | 0 | 0 | 0 | 0 | 0 | – | –
CDK2 (UniProt P24941) | 0 | 0 | 1 | 0 | 0 | 0 | 0 | 0 | – | –
ROR2 (UniProt Q01974) | 0 | 0 | 1 | 0 | 0 | 0 | 0 | 0 | – | –
MAP2K1 (UniProt Q02750) | 0 | 0 | 0 | 0 | 0 | 0 | 0 | 0 | – | –
JAK1 (UniProt P23458) | 0 | 0 | 3 | 0 | 0 | 2 | 0 | 0 | – | –
AURKA (UniProt O14965) | 0 | 0 | 1 | 0 | 0 | 2 | 0 | 0 | – | –
CSNK1A1 (UniProt P48729) | 0 | 0 | 4 | 0 | 0 | 1 | 0 | 0 | – | –
CAMK2A (UniProt Q9UQM7) | 0 | 0 | 0 | 0 | 0 | 0 | 0 | 0 | – | –
FGFR2 (UniProt P21802) | 0 | 0 | 3 | 0 | 0 | 4 | 0 | – | – | –
ULK3 (UniProt Q6PHR2) | 1 | 0 | 4 | 0 | 0 | 3 | 0 | 4 | – | –
PIK4CA (UniProt P42356) | 0 | 0 | 3 | 0 | 0 | 2 | 0 | 2 | – | –
CSNK1D (UniProt P48730) | 0 | 0 | 2 | 0 | 0 | 2 | 0 | 0 | – | –

Target | number of time points (Lck inhibitor 2) | number of time points (Vadimezan) | number of time points (Nilotinib) | number of time points [1] | number of time points (Fedratinib) | number of time points (Dasatinib) | number of time points [2] | number of time points [3] | number of time points [4] | number of time points [5]
AURKC (UniProt Q9UQB9) | 0 | 0 | 4 | 0 | 0 | 5 | 0 | 0 | – | –
BRAF_V600E | 0 | 0 | 2 | 0 | 0 | 2 | 0 | 5 | 0 | 2
CHEK2 (UniProt O96017) | 0 | 0 | 2 | 0 | 0 | 1 | 0 | 0 | – | –
MAP2K2 (UniProt P36507) | 0 | 0 | 0 | 0 | 0 | 0 | 0 | 0 | – | –
IRAK3 (UniProt Q9Y616) | 0 | 0 | 2 | 0 | 0 | 2 | 0 | 0 | – | –
RAF1 (UniProt P04049) | 0 | 0 | 3 | 0 | 0 | 2 | 0 | – | – | –
LMTK2 (UniProt Q8IWU2) | 0 | 0 | 1 | 0 | 0 | 1 | 0 | 4 | – | –
STK24 (UniProt Q9Y6E0) | 0 | 0 | 3 | 0 | 0 | 0 | 0 | 0 | – | –
LIMK1 (UniProt P53667) | 0 | 0 | 3 | 0 | 0 | 3 | 0 | 0 | – | –
RIOK1 (UniProt Q9BRS2) | 0 | 0 | 2 | 0 | 0 | 2 | 0 | 4 | – | –
RPS6KA1 (UniProt Q15418) | 0 | 0 | 1 | 0 | 0 | 0 | 0 | 0 | – | –
MAPK1 (UniProt P28482) | 0 | 0 | 2 | 0 | 0 | 0 | 0 | 0 | – | –
ARAF (UniProt P10398) | 0 | 0 | 0 | 0 | 0 | 0 | 0 | 0 | – | –
DYRK2 (UniProt Q92630) | 3 | 0 | 3 | 0 | 0 | 3 | 0 | 4 | – | –
CDK5 (UniProt Q00535) | 0 | 0 | 1 | 0 | 0 | 0 | 0 | 0 | – | –
PIK4CB (UniProt Q9UBF8) | 0 | 0 | 2 | 0 | 0 | 2 | 0 | 1 | – | –
MAPK4 (UniProt P31152) | 0 | 0 | 2 | 0 | 0 | 1 | 0 | 0 | – | –
DYRK1B (UniProt Q9Y463) | 0 | 0 | 1 | 0 | 0 | 1 | 0 | 0 | – | –
PDPK1 (UniProt O15530) | 0 | 0 | 4 | 0 | 0 | 3 | 0 | 0 | – | –
ERBB3 (UniProt P21860) | 0 | 0 | 4 | 0 | 0 | 3 | 0 | 4 | – | –
SPHK1 (UniProt Q9NYA1) | 0 | 0 | 1 | 0 | 0 | 0 | 0 | 0 | – | –
PTK2B (UniProt Q14289) | 0 | 0 | 1 | 0 | 0 | 2 | 0 | 0 | – | –
